Source: publication doi:10.1101/339499
These are yes or no findings as the source states them, for the method shown. In cells and extracts the contact can be indirect. Some results given as binding are weak or reduced against the parent protein; the word gives no strength. Where a sequence is shown, tags or fusion partners need not be part of it.

Biological target: T1, Paf1-HA (yeast) (UniProt P38351)
T1 sequence: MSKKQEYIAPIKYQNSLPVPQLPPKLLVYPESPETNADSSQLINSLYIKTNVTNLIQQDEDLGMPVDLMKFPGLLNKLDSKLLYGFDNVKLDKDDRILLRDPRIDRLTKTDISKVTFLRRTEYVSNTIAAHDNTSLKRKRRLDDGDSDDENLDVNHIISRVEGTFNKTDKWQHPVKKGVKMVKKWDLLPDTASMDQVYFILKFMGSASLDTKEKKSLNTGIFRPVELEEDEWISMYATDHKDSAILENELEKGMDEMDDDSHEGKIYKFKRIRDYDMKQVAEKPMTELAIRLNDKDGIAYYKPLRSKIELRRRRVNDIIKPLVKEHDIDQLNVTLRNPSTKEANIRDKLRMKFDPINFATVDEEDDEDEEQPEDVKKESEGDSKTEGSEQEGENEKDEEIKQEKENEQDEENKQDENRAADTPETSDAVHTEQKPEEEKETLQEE
Assay: co-IP

binding: binds
B1: Rpc128-Flag (pol III subunit Rpc128, FLAG-tagged) (protein, UniProt P22276 1-1149)
chain: MVAATKRRKTHIHKHVKDEAFDDLLKPVYKGKKLTDEINTAQDKWHLLPAFLKVKGLVKQHLDSFNYFVDTDLKKIIKANQLILSDVDPEFYLKYVDIRVGKKSSSSTKDYLTPPHECRLRDMTYSAPIYVDIEYTRGRNIIMHKDVEIGRMPIMLRSNKCILYDADESKMAKLNECPLDPGGYFIVNGTEKVILVQEQLSKNRIIVEADEKKGIVQASVTSSTHERKSKTYVITKNGKIYLKHNSIAEEIPIAIVLKACGILSDLEIMQLVCGNDSSYQDIFAVNLEESSKLDIYTQQQALEYIGAKVKTMRRQKLTILQEGIEAIATTVIAHLTVEALDFREKALYIAMMTRRVVMAMYNPKMIDDRDYVGNKRLELAGQLISLLFEDLFKKFNNDFKLSIDKVLKKPNRAMEYDALLSINVHSNNITSGLNRAISTGNWSLKRFKMERAGVTHVLSRLSYISALGMMTRISSQFEKSRKVSGPRALQPSQFGMLCTADTPEGEACGLVKNLALMTHITTDDEEEPIKKLCYVLGVEDITLIDSASLHLNYGVYLNGTLIGSIRFPTKFVTQFRHLRRTGKVSEFISIYSNSHQMAVHIATDGGRICRPLIIVSDGQSRVKDIHLRKLLDGELDFDDFLKLGLVEYLDVNEENDSYIALYEKDIVPSMTHLEIEPFTILGAVAGLIPYPHHNQSPRNTYQCAMGKQAIGAIAYNQFKRIDTLLYLMTYPQQPMVKTKTIELIDYDKLPAGQNATVAVMSYSGYDIEDALVLNKSSIDRGFGRCETRRKTTTVLKRYANHTQDIIGGMRVDENGDPIWQHQSLGPDGLGEVGMKVQSGQIYINKSVPTNSADAPNPNNVNVQTQYREAPVIYRGPEPSHIDQVMMSVSDNDQALIKVLLRQNRRPELGDKFSSRHGQKGVCGIIVKQEDMPFNDQGIVPDIIMNPHGFPSRMTVGKMIELISGKAGVLNGTLEYGTCFGGSKLEDMSKILVDQGFNYSGKDMLYSGITGECLQAYIFFGPIYYQKLKHMVLDKMHARARGPRAVLTRQPTEGRSRDGGLRLGEMERDCVIAYGASQLLLERLMISSDAFEVDVCDKCGLMGYSGWCTTCKSAENIIKMTIPYAAKLLFQELLSMNIAPRLRLEDIFQQ
